Reference: patent publication US7053249B2, “Metal chelates and methods of using them for time-resolved fluorescence” (IDEXX Laboratories, Inc., priority 2002, dated 2006)

Experiment: excitation and emission spectra of europium(III) chelates in 0.1 M borate buffer pH 9.0 with TOPO
Type: physicochemical
Details: Eu(III) chloride chelate, 0.1 M borate buffer pH 9.0, in presence of TOPO

Molecule	peak excitation wavelength
1,3-dinaphthyl-1,3-propanedione [compound 3]	400 nm
1-phenyl-3-naphthyl-1,3-propanedione [compound 2]	390 nm
O=C(CC(=O)C(F)(F)F)c1ccc2ccccc2c1 [compound 1, 2-naphthoyltrifluoroacetone, reference compound]	330 nm
